Source: US20050118615A1 (COMPUGEN, published 2005)
No constants are given. Whether binding was seen depends on the method and setting. Some results given as binding are weak or reduced against the parent protein; the word gives no strength. Tags and fused reporters may be left off the sequences shown.

By UniProt entry, the sequences of proteins in these tests, tags left out. Residues count along the entry.
UniProt P08476, residues 311-426: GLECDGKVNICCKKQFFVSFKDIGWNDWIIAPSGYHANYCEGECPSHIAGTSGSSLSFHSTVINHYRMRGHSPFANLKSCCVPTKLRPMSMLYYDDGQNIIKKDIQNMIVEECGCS

Legend:
[1] = target: recombinant human Activin A (R&D Systems) (human) (UniProt P08476); assay: in vitro binding assay with His-tagged hCHL2
[2] = target: recombinant human Activin A (R&D Systems) (human) (UniProt P08476); assay: pull-down on Talon metal affinity resin with immobilised His-hCHL2, immunoblot with anti-Activin A antibody
[3] = target: recombinant human Activin A (R&D Systems) (human) (UniProt P08476); assay: pull-down on Talon metal affinity resin with immobilised His-hCHL2, immunoblot with anti-Activin goat polyclonal antibody

binding [1]: binds
binding [2]: binds
binding [3]: binds
B1: His-tagged hCHL2 (variant II), secreted from COS-7 cells transfected with pcDNA4/myc-His-hCHL2 (other, not shown: small tags and cut ends)
chain: RARPDMFCLFHGKRYSPGESWHPYLEPQGLMYCLRCTCSEGAHVSCYRLHCPPVHCPQPVTEPQQCCPKCVEPHTPSGLRAPPKSCQHNGTMYQHGEIFSAHELFPSRLPNQCVLCSCTEGQIYCGLTTCPEPGCPAPLPLPDSCCQACKDEASEQSDEEDRVQSLHGVRHPQDPCSSDAGRKRGPGTPAPTGLSAPLSFIPRHFIPKGAGSTTVKIVLKEKHKKACVHGGKTYSHGEVWHPAFRAFGPLPCILCTCEDGRQDCQRVTCPTEYPCRHPEKVAGKCCKICPEDKADPGHSEISSTRCPKAPGRVLVHTSVSPSPDNLRRFALEHEASDLVEIYLWKLVKDEETEAQRGEVPGPRPHSQNLPLDSDQESQEARLPERGTALPTARWPPRRSLERLPSPDPGAEGHGQSRQSDQDITKT
notes: also called His-tagged hCHL2 protein
